We go through eight molecules from publication PMC5680368.

Protein sequences, listed by entry. Tags and fused reporters are not part of them.
UniProt Q16637: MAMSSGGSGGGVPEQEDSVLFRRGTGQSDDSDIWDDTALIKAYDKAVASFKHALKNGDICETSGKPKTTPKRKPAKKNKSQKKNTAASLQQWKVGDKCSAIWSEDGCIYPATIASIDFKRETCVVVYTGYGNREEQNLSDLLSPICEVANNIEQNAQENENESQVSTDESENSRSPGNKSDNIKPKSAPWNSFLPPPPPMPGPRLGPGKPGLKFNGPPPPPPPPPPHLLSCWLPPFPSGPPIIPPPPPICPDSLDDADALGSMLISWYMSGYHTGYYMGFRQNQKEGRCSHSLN
UniProt Q02880: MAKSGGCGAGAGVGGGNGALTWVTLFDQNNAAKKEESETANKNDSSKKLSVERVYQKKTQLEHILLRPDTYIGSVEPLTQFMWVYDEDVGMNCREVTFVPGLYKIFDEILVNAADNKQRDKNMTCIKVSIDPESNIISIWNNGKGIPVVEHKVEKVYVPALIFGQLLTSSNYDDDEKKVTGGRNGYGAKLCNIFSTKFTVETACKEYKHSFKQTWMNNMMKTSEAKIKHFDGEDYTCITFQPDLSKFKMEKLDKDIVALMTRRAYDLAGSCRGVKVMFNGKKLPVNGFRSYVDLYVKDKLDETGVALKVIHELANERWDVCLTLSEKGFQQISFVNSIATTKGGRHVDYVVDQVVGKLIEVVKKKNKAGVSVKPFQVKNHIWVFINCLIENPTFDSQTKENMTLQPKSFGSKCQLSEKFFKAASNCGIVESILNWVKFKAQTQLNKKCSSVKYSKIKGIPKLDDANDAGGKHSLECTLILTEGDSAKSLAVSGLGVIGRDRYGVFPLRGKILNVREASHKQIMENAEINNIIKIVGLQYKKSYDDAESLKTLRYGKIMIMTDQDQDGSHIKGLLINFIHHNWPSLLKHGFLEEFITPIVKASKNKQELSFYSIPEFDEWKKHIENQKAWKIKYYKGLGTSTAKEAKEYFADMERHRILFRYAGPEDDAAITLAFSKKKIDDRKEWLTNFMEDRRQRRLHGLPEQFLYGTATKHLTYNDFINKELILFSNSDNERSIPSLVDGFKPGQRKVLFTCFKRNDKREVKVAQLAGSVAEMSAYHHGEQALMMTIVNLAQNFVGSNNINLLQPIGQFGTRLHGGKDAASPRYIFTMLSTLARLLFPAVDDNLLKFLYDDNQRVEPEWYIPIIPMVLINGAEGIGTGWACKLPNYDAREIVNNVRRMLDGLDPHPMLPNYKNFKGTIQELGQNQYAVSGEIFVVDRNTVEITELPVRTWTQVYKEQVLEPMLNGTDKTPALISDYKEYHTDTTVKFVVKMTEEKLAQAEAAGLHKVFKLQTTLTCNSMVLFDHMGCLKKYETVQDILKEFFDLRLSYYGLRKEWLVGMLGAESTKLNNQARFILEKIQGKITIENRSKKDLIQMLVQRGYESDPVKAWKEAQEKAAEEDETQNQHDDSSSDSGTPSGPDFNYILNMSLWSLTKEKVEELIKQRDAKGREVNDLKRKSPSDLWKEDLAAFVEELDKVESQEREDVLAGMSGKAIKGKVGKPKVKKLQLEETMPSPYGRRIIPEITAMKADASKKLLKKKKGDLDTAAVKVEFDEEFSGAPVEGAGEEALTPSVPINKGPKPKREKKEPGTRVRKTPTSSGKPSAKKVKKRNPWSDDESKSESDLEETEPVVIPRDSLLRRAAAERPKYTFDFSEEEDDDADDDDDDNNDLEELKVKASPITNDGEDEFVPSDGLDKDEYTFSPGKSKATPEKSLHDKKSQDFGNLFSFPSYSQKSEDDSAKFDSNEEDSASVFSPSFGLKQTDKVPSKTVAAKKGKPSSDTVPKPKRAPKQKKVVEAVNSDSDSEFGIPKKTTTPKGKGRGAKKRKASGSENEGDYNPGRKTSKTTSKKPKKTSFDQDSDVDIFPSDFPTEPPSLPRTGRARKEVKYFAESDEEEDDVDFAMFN
UniProt Q15532: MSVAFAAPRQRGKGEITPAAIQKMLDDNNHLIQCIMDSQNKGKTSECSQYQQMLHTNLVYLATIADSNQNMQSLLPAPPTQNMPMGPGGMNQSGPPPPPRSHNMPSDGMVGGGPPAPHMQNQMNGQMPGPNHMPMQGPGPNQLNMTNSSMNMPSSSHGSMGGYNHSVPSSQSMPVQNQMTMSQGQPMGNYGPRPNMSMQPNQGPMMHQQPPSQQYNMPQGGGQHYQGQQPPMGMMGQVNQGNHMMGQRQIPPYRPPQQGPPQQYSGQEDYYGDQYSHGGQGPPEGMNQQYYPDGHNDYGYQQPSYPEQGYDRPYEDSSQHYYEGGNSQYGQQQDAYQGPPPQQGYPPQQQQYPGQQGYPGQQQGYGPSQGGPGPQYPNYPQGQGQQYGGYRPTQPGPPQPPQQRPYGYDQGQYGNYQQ
UniProt Q52LJ0: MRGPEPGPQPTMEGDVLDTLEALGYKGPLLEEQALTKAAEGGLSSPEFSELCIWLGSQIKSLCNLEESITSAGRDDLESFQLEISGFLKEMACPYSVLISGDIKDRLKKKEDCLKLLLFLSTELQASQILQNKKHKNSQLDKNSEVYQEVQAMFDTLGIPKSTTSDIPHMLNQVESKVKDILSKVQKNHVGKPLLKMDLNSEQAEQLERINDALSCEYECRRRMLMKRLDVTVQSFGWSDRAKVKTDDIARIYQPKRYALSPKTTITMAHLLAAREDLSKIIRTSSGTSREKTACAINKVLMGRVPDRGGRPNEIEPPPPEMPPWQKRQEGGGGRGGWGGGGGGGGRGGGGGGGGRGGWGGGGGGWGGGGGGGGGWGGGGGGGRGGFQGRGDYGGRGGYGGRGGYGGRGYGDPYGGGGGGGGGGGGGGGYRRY

B1: Apoptotic chromatin condensation inducer 1 (protein, UniProt Q9UKV3 1-1341)
chain: MWRRKHPRTSGGTRGVLSGNRGVEYGSGRGHLGTFEGRWRKLPKMPEAVGTDPSTSRKMAELEEVTLDGKPLQALRVTDLKAALEQRGLAKSGQKSALVKRLKGALMLENLQKHSTPHAAFQPNSQIGEEMSQNSFIKQYLEKQQELLRQRLEREAREAAELEEASAESEDEMIHPEGVASLLPPDFQSSLERPELELSRHSPRKSSSISEEKGDSDDEKPRKGERRSSRVRQARAAKLSEGSQPAEEEEDQETPSRNLRVRADRNLKTEEEEEEEEEEEEDDEEEEGDDEGQKSREAPILKEFKEEGEEIPRVKPEEMMDERPKTRSQEQEVLERGGRFTRSQEEARKSHLARQQQEKEMKTTSPLEEEEREIKSSQGLKEKSKSPSPPRLTEDRKKASLVALPEQTASEEETPPPLLTKEASSPPPHPQLHSEEEIEPMEGPAPAVLIQLSPPNTDADTRELLVSQHTVQLVGGLSPLSSPSDTKAESPAEKVPEESVLPLVQKSTLADYSAQKDLEPESDRSAQPLPLKIEELALAKGITEECLKQPSLEQKEGRRASHTLLPSHRLKQSADSSSSRSSSSSSSSSRSRSRSPDSSGSRSHSPLRSKQRDVAQARTHANPRGRPKMGSRSTSESRSRSRSRSRSASSNSRKSLSPGVSRDSSTSYTETKDPSSGQEVATPPVPQLQVCEPKERTSTSSSSVQARRLSQPESAEKHVTQRLQPERGSPKKCEAEEAEPPAATQPQTSETQTSHLPESERIHHTVEEKEEVTMDTSENRPENDVPEPPMPIADQVSNDDRPEGSVEDEEKKESSLPKSFKRKISVVSATKGVPAGNSDTEGGQPGRKRRWGASTATTQKKPSISITTESLKSLIPDIKPLAGQEAVVDLHADDSRISEDETERNGDDGTHDKGLKICRTVTQVVPAEGQENGQREEEEEEKEPEAEPPVPPQVSVEVALPPPAEHEVKKVTLGDTLTRRSISQQKSGVSITIDDPVRTAQVPSPPRGKISNIVHISNLVRPFTLGQLKELLGRTGTLVEEAFWIDKIKSHCFVTYSTVEEAVATRTALHGVKWPQSNPKFLCADYAEQDELDYHRGLLVDRPSETKTEEQGIPRPLHPPPPPPVQPPQHPRAEQREQERAVREQWAEREREMERRERTRSEREWDRDKVREGPRSRSRSRDRRRKERAKSKEKKSEKKEKAQEEPPAKLLDDLFRKTKAAPCIYWLPLTDSQIVQKEAERAERAKEREKRRKEQEEEEQKEREKEAERERNRQLEREKRREHSRERDRERERERERDRGDRDRDRERDRERGRERDRRDTKRHSRSRSRSTPVRDRGGRR
B2: SR-related CTD associated factor 11 (protein, UniProt Q99590 1-1463)
chain: MKKKTVCTLNMGDKKYEDMEGEENGDNTISTGLLYSEADRCPICLNCLLEKEVGFPESCNHVFCMTCILKWAETLASCPIDRKPFQAVFKFSALEGYVKVQVKKQLRETKDKKNENSFEKQVSCHENSKSCIRRKAIVREDLLSAKVCDLKWIHRNSLYSETGGKKNAAIKINKPQRSNWSTNQCFRNFFSNMFSSVSHSGESSFTYRAYCTEFIEASEISALIRQKRHELELSWFPDTLPGIGRIGFIPWNVETEVLPLISSVLPRTIFPTSTISFEHFGTSCKGYALAHTQEGEEKKQTSGTSNTRGSRRKPAMTTPTRRSTRNTRAETASQSQRSPISDNSGCDAPGNSNPSLSVPSSAESEKQTRQAPKRKSVRRGRKPPLLKKKLRSSVAAPEKSSSNDSVDEETAESDTSPVLEKEHQPDVDSSNICTVQTHVENQSANCLKSCNEQIEESEKHTANYDTEERVGSSSSESCAQDLPVLVGEEGEVKKLENTGIEANVLCLESEISENILEKGGDPLEKQDQISGLSQSEVKTDVCTVHLPNDFPTCLTSESKVYQPVSCPLSDLSENVESVVNEEKITESSLVEITEHKDFTLKTEELIESPKLESSEGEIIQTVDRQSVKSPEVQLLGHVETEDVEIIATCDTFGNEDFNNIQDSENNLLKNNLLNTKLEKSLEEKNESLTEHPRSTELPKTHIEQIQKHFSEDNNEMIPMECDSFCSDQNESEVEPSVNADLKQMNENSVTHCSENNMPSSDLADEKVETVSQPSESPKDTIDKTKKPRTRRSRFHSPSTTWSPNKDTPQEKKRPQSPSPRRETGKESRKSQSPSPKNESARGRKKSRSQSPKKDIARERRQSQSRSPKRDTTRESRRSESLSPRRETSRENKRSQPRVKDSSPGEKSRSQSRERESDRDGQRRERERRTRKWSRSRSHSRSPSRCRTKSKSSSFGRIDRDSYSPRWKGRWANDGWRCPRGNDRYRKNDPEKQNENTRKEKNDIHLDADDPNSADKHRNDCPNWITEKINSGPDPRTRNPEKLKESHWEENRNENSGNSWNKNFGSGWVSNRGRGRGNRGRGTYRSSFAYKDQNENRWQNRKPLSGNSNSSGSESFKFVEQQSYKRKSEQEFSFDTPADRSGWTSASSWAVRKTLPADVQNYYSRRGRNSSGPQSGWMKQEEETSGQDSSLKDQTNQQVDGSQLPINMMQPQMNVMQQQMNAQHQPMNIFPYPVGVHAPLMNIQRNPFNIHPQLPLHLHTGVPLMQVATPTSVSQGLPPPPPPPPPSQQVNYIASQPDGKQLQGIPSSSHVSNNMSTPVLPAPTAAPGNTGMVQGPSSGNTSSSSHSKASNAAVKLAESKVSVAVEASADSSKTDKKLQIQEKAAQEVKLAIKPFYQNKDITKEEYKEIVRKAVDKVCHSKSGEVNSTKVANLVKAYVDKYKYSRKGSQKKTLEEPVSTEKNIG
B3: Deoxynucleotidyltransferase terminal interacting protein 2 (protein, UniProt Q5QJE6 1-756)
chain: MVVTRSARAKASIQAASAESSGQKSFAANGIQAHPESSTGSDARTTAESQTTGKQSLIPRTPKARKRKSRTTGSLPKGTEPSTDGETSEAESNYSVSEHHDTILRVTRRRQILIACSPVSSVRKKPKVTPTKESYTEEIVSEAESHVSGISRIVLPTEKTTGARRSKAKSLTDPSQESHTEAISDAETSSSDISFSGIATRRTRSMQRKLKAQTEKKDSKIVPGNEKQIVGTPVNSEDSDTRQTSHLQARSLSEINKPNFYNNDFDDDFSHRSSENILTVHEQANVESLKETKQNCKDLDEDANGITDEGKEINEKSSQLKNLSELQDTSLQQLVSQRHSTPQNKNAVSVHSNLNSEAVMKSLTQTFATVEVGRWNNNKKSPIKASDLTKFGDCGGSDDEEESTVISVSEDMNSEGNVDFECDTKLYTSAPNTSQGKDNSVLLVLSSDESQQSENSENEEDTLCFVENSGQRESLSGDTGSLSCDNALFVIDTTPGMSADKNFYLEEEDKASEVAIEEEKEEEEDEKSEEDSSDHDENEDEFSDEEDFLNSTKAKLLKLTSSSIDPGLSIKQLGGLYINFNADKLQSNKRTLTQIKEKKKNELLQKAVITPDFEKNHCVPPYSESKYQLQKKRRKERQKTAGDGWFGMKAPEMTNELKNDLKALKMRASMDPKRFYKKNDRDGFPKYFQIGTIVDNPADFYHSRIPKKQRKRTIVEELLADSEFRRYNRRKYSEIMAEKAANAAGKKFRKKKKFRN
B4: Smad nuclear interacting protein 1 (protein, UniProt Q8TAD8 1-396)
chain: MKAVKSERERGSRRRHRDGDVVLPAGVVVKQERLSPEVAPPAHRRPDHSGGSPSPPTSEPARSGHRGNRARGVSRSPPKKKNKASGRRSKSPRSKRNRSPHHSTVKVKQEREDHPRRGREDRQHREPSEQEHRRARNSDRDRHRGHSHQRRTSNERPGSGQGQGRDRDTQNLQAQEEEREFYNARRREHRQRNDVGGGGSESQELVPRPGGNNKEKEVPAKEKPSFELSGALLEDTNTFRGVVIKYSEPPEARIPKKRWRLYPFKNDEVLPVMYIHRQSAYLLGRHRRIADIPIDHPSCSKQHAVFQYRLVEYTRADGTVGRRVKPYIIDLGSGNGTFLNNKRIEPQRYYELKEKDVLKFGFSSREYVLLHESSDTSEIDRKDDEDEEEEEEVSDS

No constants are given. Whether binding was seen depends on the method and setting. In cells and extracts the contact can be indirect. A yes stands for co-enrichment or nearness to the bait. Other partners may have been found. For some assays here: No binding means not detected with the bait. Tags and fused reporters may be left off the sequences shown.

The target in one assay is T1, human OSTF1 tagged at the N-terminus with a V5-epitope tag (human) (UniProt Q92882).
T1 sequence: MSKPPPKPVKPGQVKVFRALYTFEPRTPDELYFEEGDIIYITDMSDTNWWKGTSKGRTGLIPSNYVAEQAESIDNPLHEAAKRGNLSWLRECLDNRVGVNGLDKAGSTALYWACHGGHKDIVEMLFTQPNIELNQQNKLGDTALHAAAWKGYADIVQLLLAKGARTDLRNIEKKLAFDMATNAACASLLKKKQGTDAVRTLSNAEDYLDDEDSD
The experiment in a line: affinity purification with mass spectrometry; HEK293 cells transiently transfected in triplicate with empty vector or V5-OSTF1; lysed after 48 h in 50 mM Tris pH 7.5, 1% Triton-X100, 150 mM NaCl; automated IP with anti-V5 magnetic agarose; co-immunoprecipitating proteins identified by LC-MS/MS.
Consider “Survival of Motor Neuron 1 (from UniProt Q16637 1-294)”, for which the binding entry was “no binding”.

As for “Topoisomerase (DNA) II beta (from UniProt Q02880 1-1626)”, the binding result is “binds”.

For the molecule “SS18, nBAF chromatin remodelling complex subunit (from UniProt Q15532 1-418)”, the binding entry was “binds”.

Regarding “Family with sequence similarity 98 member B (from UniProt Q52LJ0 1-433)”, the binding entry is reported as “binds”.

A further assay addresses T1, human OSTF1 tagged at the N-terminus with a V5-epitope tag (human). The assay is described as above. This is another data set of the same source.
For the molecule B1, the binding result was “binds”.

As to B2, the binding result is recorded as “binds”.

As for B3, the binding entry is reported as “binds”.

Consider B4, for which the binding result is “binds”.
